Laboratory results: patent US20140346397A1
Results are given in words; binding and its absence hold for the method and conditions named. Some results given as binding are weak or reduced against the parent protein; the word gives no strength.

Chains of the proteins cited; added tags and fusions are not shown. Lines headed by an entry give the natural chain unless they say otherwise; changes in a name come on top.
UniProt P00742: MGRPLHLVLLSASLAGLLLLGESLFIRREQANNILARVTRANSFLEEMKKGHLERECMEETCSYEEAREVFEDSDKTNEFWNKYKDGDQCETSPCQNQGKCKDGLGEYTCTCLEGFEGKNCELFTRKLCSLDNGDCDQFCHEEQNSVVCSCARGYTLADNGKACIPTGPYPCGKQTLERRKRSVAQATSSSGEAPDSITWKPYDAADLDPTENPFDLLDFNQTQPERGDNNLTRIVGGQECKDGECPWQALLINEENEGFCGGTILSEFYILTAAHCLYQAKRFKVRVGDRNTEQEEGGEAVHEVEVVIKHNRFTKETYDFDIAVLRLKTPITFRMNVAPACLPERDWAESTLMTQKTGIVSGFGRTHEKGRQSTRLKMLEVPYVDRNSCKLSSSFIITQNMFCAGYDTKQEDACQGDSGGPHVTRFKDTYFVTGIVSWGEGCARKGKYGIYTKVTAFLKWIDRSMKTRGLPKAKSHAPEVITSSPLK

Tests used:
[1] = target: r-Antidote (fXa derivative, cleaved two-chain polypeptide with the linker removed) (human) (UniProt P00742); assay: affinity chromatography on immobilised STI, elution of the bound protein
[2] = target: r-Antidote (fXa derivative, cleaved two-chain polypeptide with the linker removed) (human) (UniProt P00742); assay: affinity chromatography on immobilised STI, SDS-PAGE of the purified protein (FIG. 5)
[3] = target: r-Antidote (fXa derivative, cleaved two-chain polypeptide with the linker removed) (human) (UniProt P00742); assay: affinity chromatography on immobilised STI, SDS-PAGE of the purified protein (FIG. 6)

Measured: binding

B1: Soyabean Trypsin Inhibitor (STI), on STI affinity resin (protein, UniProt P01070 25-205, looked up)
chain: DFVLDNEGNPLENGGTYYILSDITAFGGIRAAPTGNERCPLTVVQSRNELDKGIGTIISSPYRIRFIAEGHPLSLKFDSFAVIMLCVGIPTEWSVVEDLPEGPAVKIGENKDAMDGWFRLERVSDDEFNNYKLVFCPQQAEDDKCGDIGISIDHDDGTRRLVVSKNKPLVVQFQKLDKESL
binds: all assays above
